Laboratory results reported in article PMC11499256, “Two-factor authentication underpins the precision of the piRNA pathway” (Nature, 2024).
Results are given in words; binding and its absence hold for the method and conditions named. In cells and extracts the contact can be indirect. Some results given as binding are weak or reduced against the parent protein; the word gives no strength. For some assays here: Where a sequence is shown, tags or fusion partners need not be part of it.

By UniProt entry, the sequences of proteins in these tests, tags left out.
UniProt Q61142: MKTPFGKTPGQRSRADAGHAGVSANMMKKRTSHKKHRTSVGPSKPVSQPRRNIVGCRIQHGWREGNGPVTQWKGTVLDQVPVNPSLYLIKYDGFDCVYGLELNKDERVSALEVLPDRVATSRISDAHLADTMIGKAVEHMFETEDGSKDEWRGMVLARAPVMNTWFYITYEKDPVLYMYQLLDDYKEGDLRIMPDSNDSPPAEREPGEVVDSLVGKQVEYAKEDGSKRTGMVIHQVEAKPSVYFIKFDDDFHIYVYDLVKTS

Tests used:
Test in all cases: co-IP; HEK293T co-transfected; lysis in IP buffer (150 mM KCl, 2.5 mM MgCl2, 0.5% Triton X-100, 50 mM Tris-HCl pH 8, benzonase); anti-HA beads 1 h at 4 °C; western blot
[1] = biological target: T1, SPOCD1, full length, mouse wild type, HA epitope-tagged (mouse) (UniProt B1ASB6)
T1 sequence: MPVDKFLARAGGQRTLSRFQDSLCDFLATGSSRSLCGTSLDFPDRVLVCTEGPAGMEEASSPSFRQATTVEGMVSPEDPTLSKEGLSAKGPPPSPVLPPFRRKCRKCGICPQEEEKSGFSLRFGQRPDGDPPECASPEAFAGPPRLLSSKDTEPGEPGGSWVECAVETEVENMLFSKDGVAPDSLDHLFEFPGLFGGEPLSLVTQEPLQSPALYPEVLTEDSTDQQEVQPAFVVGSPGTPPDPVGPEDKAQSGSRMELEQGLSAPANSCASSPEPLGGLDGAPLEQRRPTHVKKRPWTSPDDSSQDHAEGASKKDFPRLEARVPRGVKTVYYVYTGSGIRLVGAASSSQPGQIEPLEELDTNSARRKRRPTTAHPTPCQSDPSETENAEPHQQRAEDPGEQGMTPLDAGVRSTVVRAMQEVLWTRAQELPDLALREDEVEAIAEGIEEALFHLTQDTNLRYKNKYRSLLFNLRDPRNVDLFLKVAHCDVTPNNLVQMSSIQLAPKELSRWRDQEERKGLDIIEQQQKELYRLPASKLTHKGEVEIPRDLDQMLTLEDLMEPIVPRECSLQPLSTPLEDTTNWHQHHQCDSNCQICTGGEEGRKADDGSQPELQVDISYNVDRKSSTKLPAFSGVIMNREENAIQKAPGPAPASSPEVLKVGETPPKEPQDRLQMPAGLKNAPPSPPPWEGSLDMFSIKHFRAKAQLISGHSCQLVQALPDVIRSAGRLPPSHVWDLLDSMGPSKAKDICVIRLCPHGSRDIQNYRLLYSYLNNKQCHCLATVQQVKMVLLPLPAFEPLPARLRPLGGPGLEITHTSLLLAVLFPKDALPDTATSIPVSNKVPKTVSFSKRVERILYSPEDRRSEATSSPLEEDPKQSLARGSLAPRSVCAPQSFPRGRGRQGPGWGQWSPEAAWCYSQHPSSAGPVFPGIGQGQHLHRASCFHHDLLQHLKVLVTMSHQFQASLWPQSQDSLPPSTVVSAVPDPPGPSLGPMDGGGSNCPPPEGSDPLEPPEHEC

[2] = biological target: T2, SPOCD1 fragment 1 (amino acids 1–409) (mouse) (UniProt B1ASB6)
T2 sequence: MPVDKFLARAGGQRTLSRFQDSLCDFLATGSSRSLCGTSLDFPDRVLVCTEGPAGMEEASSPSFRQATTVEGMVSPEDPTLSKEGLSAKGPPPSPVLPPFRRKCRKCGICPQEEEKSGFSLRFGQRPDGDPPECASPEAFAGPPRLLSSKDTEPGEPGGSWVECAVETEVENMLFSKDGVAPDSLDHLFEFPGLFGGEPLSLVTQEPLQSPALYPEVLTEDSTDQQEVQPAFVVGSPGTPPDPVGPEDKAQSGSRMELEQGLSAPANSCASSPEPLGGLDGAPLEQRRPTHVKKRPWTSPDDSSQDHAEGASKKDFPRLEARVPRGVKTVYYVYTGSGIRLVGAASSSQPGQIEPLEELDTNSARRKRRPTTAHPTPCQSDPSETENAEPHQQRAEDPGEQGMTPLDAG

[3] = biological target: T3, GFP fused with 20 amino acids (327–346) of mouse SPOCD1 (mouse) (UniProt B1ASB6)
T3 sequence: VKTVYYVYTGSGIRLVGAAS

[4] = biological target: T4, SPOCD1 fragment 1b (amino acids 205–409), expressed in HEK cells (mouse) (UniProt B1ASB6)
T4 sequence: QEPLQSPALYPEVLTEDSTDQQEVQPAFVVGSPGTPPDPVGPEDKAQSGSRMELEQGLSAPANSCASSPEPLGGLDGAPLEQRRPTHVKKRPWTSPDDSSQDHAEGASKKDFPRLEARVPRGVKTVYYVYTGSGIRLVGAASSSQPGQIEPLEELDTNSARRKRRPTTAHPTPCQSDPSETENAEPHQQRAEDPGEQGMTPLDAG

[5] = biological target: T5, SPOCD1, full length, mouse wild type, HA epitope-tagged (mouse), B1ASB6; conditions: remark: other sources report otherwise
T5 chain: T1 sequence

SPIN1 (SPINDLIN1), co-expressed in HEK cells (from UniProt Q61142 1-262)
binding [1]: binds
binding [2]: binds
binding [3]: binds
binding [4]: binds

B1: FLAG-tagged DNMT3L, Q9CWR8 1-421 (protein)
chain: MGSRETPSSCSKTLETLDLETSDSSSPDADSPLEEQWLKSSPALKEDSVDVVLEDCKEPLSPSSPPTGREMIRYEVKVNRRSIEDICLCCGTLQVYTRHPLFEGGLCAPCKDKFLESLFLYDDDGHQSYCTICCSGGTLFICESPDCTRCYCFECVDILVGPGTSERINAMACWVCFLCLPFSRSGLLQRRKRWRHQLKAFHDQEGAGPMEIYKTVSAWKRQPVRVLSLFRNIDKVLKSLGFLESGSGSGGGTLKYVEDVTNVVRRDVEKWGPFDLVYGSTQPLGSSCDRCPGWYMFQFHRILQYALPRQESQRPFFWIFMDNLLLTEDDQETTTRFLQTEAVTLQDVRGRDYQNAMRVWSNIPGLKSKHAPLTPKEEEYLQAQVRSRSKLDAPKVDLLVKNCLLPLREYFKYFSQNSLPL
binding [5]: binds
